Assay results published in PubChem BioAssay AID504467 (National Center for Advancing Translational Sciences (NCATS), 2011).
The campaign covered roughly 330,000 compounds. About 7,700 (2.3%) were called active. This list was built around the results that the source calls inconclusive (neither active nor inactive); the mix of calls is not that of the screen. The call rests on the fitted dose curve; in most records, active means well fitted inhibition curve with a large enough effect; inconclusive means small, poorly fitted or top-dose-only effect, or effect the other way; inactive means flat fitted curve, though single readings scatter. Potencies of inconclusive entries are doubtful fits and often do not repeat.

assay: qHTS screen for small molecules that inhibit ELG1-dependent DNA repair in human embryonic kidney (HEK293T) cells expressing luciferase-tagged ELG1; settings: HEK293T ELG1-luciferase reporter, luminescence, 16 h, DNA damage induced by 5-fluorouridine; activity change, negative = inhibition: at 46.1 µM (top of the series); further: nearly all actives have a fitted effect of over 55% in size
Procedure, shortened: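 Luminescence from the luciferase reporter, measured 30 min after ONE-Glo reagent at room temperature, was the read-out. Beforehand, 2,000 cells per well were exposed for 16 hr at 37 °C to 5-fluorouridine together with compound or vehicle.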
On the % scale 0 is the no-effect control and ±100 the full control effect; potency means the concentration at half of the fitted maximal effect.

Q: Which Potency does the source give for `O=C1OC(C(=O)Nc2nccs2)Cc2ccccc21` (stereo not drawn) here?
A: inconclusive: 16.4 µM [activator, single point]

Q: With `COc1ccccc1C(=O)NCCC(=O)Nc1ccc(S(=O)(=O)Nc2ncccn2)cc1` as the compound, how does the Potency read?
A: inconclusive: 16.4 µM [activator, partial curve, poor fit]

Q: Which “activity change, negative = inhibition” value does the source give for `COc1ccc2c(c1)OC13CCN(C)CC1C2C(C(=O)c1ccc(F)cc1)C(=O)N3` (stereo not drawn) here?
A: inactive: 9.58%

Q: Which Potency does the source give for `Fc1ccc(CSc2nnc3ccccn23)c(Cl)c1` here?
A: inconclusive: 23.1 µM [activator, partial curve]

Q: For `CC1(C)Cc2cccc(OCC(=O)N3CCN(c4ccccc4F)CC3)c2O1`, which Potency is on record?
A: inconclusive: 20.6 µM [inhibitor, single point]

Q: Which Potency does the source give for `CCC(C)(CC(=O)O)CC(=O)Nc1cc(C(F)(F)F)cc(C(F)(F)F)c1` (stereo not drawn) here?
A: inconclusive: 20.6 µM [inhibitor, single point]

Q: Which Potency does the source give for `Clc1ccccc1-c1nnc(-c2cccs2)o1` here?
A: inconclusive: 11.6 µM [activator, partial curve]

Q: For `Cc1occc1C(=O)N1CCCC(CO)(Cc2ccc(F)cc2F)C1` (stereo not drawn), which “activity change, negative = inhibition” value is on record?
A: inactive: -1.58%

Q: For `O=[N+]([O-])c1ccc(CSc2ccccn2)cc1`, which Potency is on record?
A: inconclusive: 23.1 µM [activator, partial curve]

Q: For `CCOC(=O)c1nc(-c2ccc3c(c2)OCO3)[nH]c1C`, which Potency is on record?
A: inconclusive: 8.2 µM [activator, partial curve, poor fit]

Q: For `Oc1ccc2oc3c(c2c1)CCCC3`, which “activity change, negative = inhibition” value is on record?
A: inactive: 0%

Q: With `COc1ccc(-c2nnc(SCC(=O)Nc3cccc(Cl)c3)o2)cc1` as the compound, how does the Potency read?
A: inconclusive: 18.4 µM [activator, partial curve]

Q: For `CCN1CC(CN(C)Cc2nc(-c3ccco3)oc2C)CC1=O` (stereo not drawn), which Potency is on record?
A: inconclusive: 20.6 µM [activator, partial curve, poor fit]

Q: With `O=C(NCCCn1ccnc1)c1ccc(Br)cc1` as the compound, how does the “activity change, negative = inhibition” value read?
A: inactive: 11.9%

Q: With `O=C(COc1ccccc1Cl)NCCNC(=O)c1cccnc1` as the compound, how does the “activity change, negative = inhibition” value read?
A: inactive: -6.21%

Q: With `CC(NC(=O)c1ccco1)C(c1cccs1)N1CCN(c2ccccc2F)CC1` (stereo not drawn) as the compound, how does the Potency read?
A: inconclusive: 7.31 µM [inhibitor, partial curve, poor fit]

Q: With `CCC(=O)N1CCc2cc(S(=O)(=O)NCCc3ccc(S(N)(=O)=O)cc3)ccc21` as the compound, how does the “activity change, negative = inhibition” value read?
A: inactive: 1%

Q: For `Cc1onc(-c2ccccc2Cl)c1C(=O)N1CCN(c2cccc(Cl)c2)CC1`, which Potency is on record?
A: inconclusive: 8.2 µM [inhibitor, partial curve, poor fit]

Q: With `O=C(CCCc1nc2ccccc2s1)N1CCN(c2ccccc2F)CC1` as the compound, how does the “activity change, negative = inhibition” value read?
A: inactive: -2.55%

Q: With `COC(=O)c1cc(S(=O)(=O)N2CCC(c3ccccc3)C2)c[nH]1` (stereo not drawn) as the compound, how does the Potency read?
A: inconclusive: 5.8 µM [inhibitor, full curve]

Q: For `CCOc1c(C)cnc2c1c(=O)n(Cc1c(F)cccc1Cl)c(=O)n2C`, which “activity change, negative = inhibition” value is on record?
A: inactive: 5.23%

Q: For `CCCCOc1ccc(-c2nnn(CC(=O)NCc3ccco3)n2)cc1`, which Potency is on record?
A: inconclusive: 20.6 µM [activator, single point]

Q: For `COc1cccc(NC(=O)CN(C)C(=O)c2cc(C3CC3)nn2-c2ccccc2)c1`, which “activity change, negative = inhibition” value is on record?
A: inactive: -20.6%

Q: Which Potency does the source give for `Cc1ccc(OCC(=O)NC2CCSc3ccccc32)cc1` (stereo not drawn) here?
A: inconclusive: 18.3 µM [activator, single point]

Q: With `Cc1c(C2C(C#N)=C(N)N(c3ccccc3C#N)C3=C2C(=O)CCC3)cnn1C` (stereo not drawn) as the compound, how does the “activity change, negative = inhibition” value read?
A: inactive: 3.3%

Q: Which Potency does the source give for `NN/C(=C\[N+](=O)[O-])Nc1ccccc1` here?
A: inconclusive: 10.3 µM [activator, partial curve]

Q: For `CC1(C)CNC(=O)c2sc(NC(=O)c3ccccc3)nc2C1`, which Potency is on record?
A: inconclusive: 14.6 µM [activator, partial curve]

Q: For `CC(=O)N1CCN(c2ccc(NC(=O)c3ccc(N4CCCC4)c([N+](=O)[O-])c3)cc2Cl)CC1`, which Potency is on record?
A: inconclusive: 29.1 µM [inhibitor, single point]

Q: With `Cc1nc(C(=O)NCc2ccccc2)sc1C1(C)CC(c2cccnc2)=NO1` (stereo not drawn) as the compound, how does the Potency read?
A: inconclusive: 18.3 µM [inhibitor, single point]

Q: With `C=COC(=O)c1sc2nc(C)cc(C)c2c1N` as the compound, how does the Potency read?
A: inconclusive: 18.3 µM [activator, partial curve, poor fit]

Q: Which Potency does the source give for `O=C(Nc1ccc(SC(F)F)cc1)c1ccc2nccnc2c1` here?
A: inconclusive: 2.59 µM [activator, single point]

Q: Which Potency does the source give for `C=CCNc1nc(N)c([N+](=O)[O-])c(N2CCCCCC2)n1` here?
A: inconclusive: 23.1 µM [inhibitor, single point]

Q: For `O=C(c1ccc(Cl)cc1)c1oc2ccccc2c1CS(=O)(=O)c1ccccc1`, which Potency is on record?
A: inconclusive: 29.1 µM [inhibitor, single point]

Q: Which Potency does the source give for `CCN(CC)C(=O)OCc1c(-c2ccccc2)ncc2ccccc12` here?
A: inconclusive: 4.11 µM [activator, full curve, poor fit]

Q: For `Cc1ccc(-c2cc(C(=O)NCCc3ccc(S(N)(=O)=O)cc3)c3ccccc3n2)cc1`, which Potency is on record?
A: inconclusive: 20.6 µM [inhibitor, single point]

Q: With `O=C(Nc1cccc2ncccc12)c1ccc([N+](=O)[O-])o1` as the compound, how does the Potency read?
A: inconclusive: 14.6 µM [inhibitor, partial curve, poor fit]

Q: Which “activity change, negative = inhibition” value does the source give for `O=C1Cc2ccccc2C(c2ccc(Cl)cc2)N1` (stereo not drawn) here?
A: inactive: -18.2%

Q: With `Cc1cc(O)ccc1Nc1nc(-c2cccnc2)cs1` as the compound, how does the Potency read?
A: inconclusive: 8.2 µM [activator, partial curve]

Q: With `COc1ccc(NC(=O)C(c2ccccc2)N2CCN(c3ccccn3)CC2)cc1Cl` (stereo not drawn) as the compound, how does the Potency read?
A: inconclusive: 29.1 µM [inhibitor, single point]

Q: For `O=C1Cc2ccccc2N1c1ccccc1`, which “activity change, negative = inhibition” value is on record?
A: inactive: 4.04%

Q: With `COc1ccc(N(CC(=O)Nc2nc3ccc(C)cc3s2)S(=O)(=O)c2c(C)nn(C)c2C)cc1` as the compound, how does the Potency read?
A: active: 18.4 µM

Q: With `CCOc1ccc(NC(=O)CN2CCN(CC(=O)Nc3ccc(C(N)=O)cc3)CC2)cc1` as the compound, how does the “activity change, negative = inhibition” value read?
A: inactive: 7.46%

Q: Which Potency does the source give for `CCCCNS(=O)(=O)c1cc2c3c(c1)CCN3C(=O)CC2` here?
A: inconclusive: 20.6 µM [activator, single point]

Q: Which Potency does the source give for `O=C(NNC(=O)c1ccc[nH]1)Nc1cc(Cl)cc(Cl)c1` here?
A: inconclusive: 14.6 µM [activator, partial curve, poor fit]

Q: With `Cc1c(C(=O)C(=O)NCc2cccs2)c2ccccc2n1C` as the compound, how does the “activity change, negative = inhibition” value read?
A: inactive: -5.06%

Q: With `COCCOc1nc2c(c(=O)n(C)c(=O)n2C)n1Cc1cccc(OC)c1` as the compound, how does the Potency read?
A: inconclusive: 10.3 µM [inhibitor, partial curve]

Q: With `CCN(CC)S(=O)(=O)c1ccc(-c2csc(C)n2)cc1` as the compound, how does the “activity change, negative = inhibition” value read?
A: inactive: 2.32%

Q: For `Cc1ccc(CNC(=O)C2CCC(=O)N(C3CCCC3)C2)c(F)c1F` (stereo not drawn), which “activity change, negative = inhibition” value is on record?
A: inactive: -1.38%

Q: With `O=S1(=O)N[C@@H](CC2CCCCC2)COc2cc(Br)ccc21` as the compound, how does the “activity change, negative = inhibition” value read?
A: inactive: 13.6%

Q: For `COCC(O)CNc1ccccc1` (stereo not drawn), which “activity change, negative = inhibition” value is on record?
A: inactive: 0.635%

Q: For `O=C(COC(=O)CNC(=O)c1cccc([N+](=O)[O-])c1)NCc1ccco1`, which “activity change, negative = inhibition” value is on record?
A: inactive: -0.146%

Q: Which “activity change, negative = inhibition” value does the source give for `CC1(C)[N+]([O-])=C2C(=[N+]([O-])C1(C)C)c1ccccc1/C2=N\O` here?
A: inactive: -3%

Q: For `O=C(NCC(=O)N1CCc2ccccc2C1)c1ccccc1Cl`, which Potency is on record?
A: inconclusive: 20.6 µM [activator, partial curve]

Q: For `COc1ccc(OCC(=O)Nc2nonc2NC(=O)COc2ccc(OC)cc2)cc1`, which “activity change, negative = inhibition” value is on record?
A: inactive: 9.46%

Q: For `Cc1cc(OCC(=O)N[C@@H](Cc2ccccc2)c2nc3ccccc3[nH]2)ccc1Cl`, which Potency is on record?
A: inconclusive: 16.4 µM [activator, partial curve, poor fit]

Q: For `O=C(C1CCN(Cc2cc(Cl)ccc2O)CC1)N1CCN(Cc2ccccc2)CC1`, which “activity change, negative = inhibition” value is on record?
A: inactive: -14.1%

Q: For `COc1cccc2cc(C(=O)N3CCCCCCC3)c(=O)oc12`, which Potency is on record?
A: inconclusive: 29.1 µM [activator, single point]

Q: Which Potency does the source give for `COc1ccccc1NC(=O)COC(=O)c1ccc(S(=O)(=O)NCc2ccco2)cc1` here?
A: inconclusive: 0.231 µM [inhibitor, partial curve, poor fit]

Q: Which Potency does the source give for `CN(C)/C=C(\C#N)C(=O)Nc1ccc(F)cc1` here?
A: inconclusive: 29.1 µM [activator, single point]

Q: Which Potency does the source give for `BrC(=C\c1ccccc1)/C=N/N1CCN(c2ccccn2)CC1` here?
A: inconclusive: 23.1 µM [activator, single point]

Q: Which Potency does the source give for `Cc1ccc(Oc2ccc(C(=O)NCc3ccncc3)cc2)cc1` here?
A: inconclusive: 6.51 µM [inhibitor, single point]

Q: With `Cc1ccc(Nc2nc(C3CC3)cs2)cc1` as the compound, how does the Potency read?
A: inconclusive: 4.61 µM [activator, partial curve]

Q: For `COc1ccc2[nH]c3nc(SC(C)C)nnc3c2c1`, which Potency is on record?
A: inconclusive: 0.461 µM [activator, full curve]

Q: With `CC(=O)N(CCC(Cc1ccccc1)c1ccco1)Cc1ccco1` (stereo not drawn) as the compound, how does the “activity change, negative = inhibition” value read?
A: inactive: -11.2%

Q: With `CCOC(=O)C1=C(N)n2c(s/c(=C/c3ccco3)c2=O)=C(C(=O)OC)C1c1ccco1` (stereo not drawn) as the compound, how does the Potency read?
A: inconclusive: 8.2 µM [inhibitor, single point]

Q: For `CCOC(=O)c1cnc2ccc(C)cc2c1Nc1ccc(N2CCOCC2)cc1`, which Potency is on record?
A: inconclusive: 29.1 µM [inhibitor, single point]

Q: With `COc1ccc(C(=O)NCCNc2nc3c(C)cccc3cc2C#N)cc1OC` as the compound, how does the Potency read?
A: inconclusive: 25.1 µM [inhibitor, single point]

Q: With `O=C(Nn1cnc2ccccc2c1=O)c1c(F)cccc1F` as the compound, how does the “activity change, negative = inhibition” value read?
A: inactive: 7.19%

Q: With `O=C(COC(=O)C1CCC1)NCc1ccc(Cl)cc1Cl` as the compound, how does the “activity change, negative = inhibition” value read?
A: inactive: 7.48%

Q: For `COc1cnc(-c2ccccn2)nc1Oc1cccc(Cl)c1`, which Potency is on record?
A: inconclusive: 5.01 µM [inhibitor, full curve, poor fit]

Q: Which Potency does the source give for `O=C1Nc2ccccc2C12OCCS2` (stereo not drawn) here?
A: inconclusive: 29.1 µM [activator, partial curve, poor fit]

Q: For `CN1C(=O)C2(OCC(CO)([N+](=O)[O-])CO2)c2ccccc21` (stereo not drawn), which Potency is on record?
A: inconclusive: 20.6 µM [activator, single point]

Q: Which Potency does the source give for `O=C(OCC(=O)N1CCOCC1)c1ccc2ccccc2c1O` here?
A: inconclusive: 14.1 µM [activator, partial curve]
